Patent US9115121B2, “1,3,5-triazine-2-amine derivatives, preparation thereof and diagnostic and therapeutic use thereof” (SANOFI, priority 2011, dated 2015)

The chains behind the UniProt entries cited, without tags or fusion partners.
UniProt P34972, whole entry: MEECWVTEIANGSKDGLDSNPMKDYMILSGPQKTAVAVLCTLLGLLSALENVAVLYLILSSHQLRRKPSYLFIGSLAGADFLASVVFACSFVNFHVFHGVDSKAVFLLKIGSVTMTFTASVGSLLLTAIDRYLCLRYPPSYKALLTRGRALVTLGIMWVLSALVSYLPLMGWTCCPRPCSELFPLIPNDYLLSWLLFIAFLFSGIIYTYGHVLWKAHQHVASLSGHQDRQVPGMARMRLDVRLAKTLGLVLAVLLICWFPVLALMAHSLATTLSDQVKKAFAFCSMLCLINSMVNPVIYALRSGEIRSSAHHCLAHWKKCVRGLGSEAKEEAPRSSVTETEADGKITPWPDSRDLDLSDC

Molecular target: human CB2 receptors (Homo sapiens (Human), UniProt P34972)
Assay: Affinity binding test on human CB2 receptors (tritiated ligand, membranes of recombinant cell lines)
Conditions: read-out: IC50 (nM) hCB2, concentration causing 50% inhibition of specific binding of the tritiated ligand

`COc1nc(NCCc2ccc(F)cc2)nc(-c2cccc(S(C)(=O)=O)c2)n1` gave an IC50 of 38 nM.

The match of structure and compound is tentative.
